# From the supplement of paper PMC8728848
# This is one part of the list.
# Tests used:
# Assay in all cases: glycan array binding signal (z-score within array); higher = stronger binding
# Details in all cases: glycan notation: IUPAC condensed, linker removed
# [1] = molecular target: Gal(b1-3)GlcNAc(b1-3)Gal(b1-4)GlcNAc(b1-2)[Gal(b1-3)GlcNAc(b1-3)Gal(b1-4)GlcNAc(b1-6)]Man(a1-6)[Gal(b1-3)GlcNAc(b1-3)Gal(b1-4)GlcNAc(b1-2)Man(a1-3)]Man(b1-4)GlcNAc(b1-4)[Fuc(a1-6)]GlcNAc
# Summary of the method: (§1)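 Columns mapping to the same glycan were averaged after glycan names were converted to IUPAC-condensed notation. The data come from 3228 arrays in the Consortium for Functional Glycomics database, limited to those with an available protein sequence. Binding is reported as a within-array Z-score averaged across arrays of one protein sequence and across linkers.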
# [2] = molecular target: Gal(b1-3)GlcNAc(b1-3)Gal(b1-4)GlcNAc(b1-3)Gal(b1-4)GlcNAc(b1-2)[Gal(b1-3)GlcNAc(b1-3)Gal(b1-4)GlcNAc(b1-3)Gal(b1-4)GlcNAc(b1-6)]Man(a1-6)[Gal(b1-3)GlcNAc(b1-3)Gal(b1-4)GlcNAc(b1-3)Gal(b1-4)GlcNAc(b1-2)Man(a1-3)]Man(b1-4)GlcNAc(b1-4)[Fuc(a1-6)]GlcNAc
# Summary of the method: as §1
# [3] = molecular target: Gal(b1-3)GlcNAc(b1-3)Gal(b1-4)GlcNAc(b1-6)[Gal(b1-3)GlcNAc(b1-3)]Gal(b1-4)Glc
# Summary of the method: as §1
# [4] = molecular target: Gal(b1-3)GlcNAc(b1-3)Gal(b1-4)[Fuc(a1-3)]GlcNAc
# Summary of the method: as §1
# [5] = molecular target: Gal(b1-3)GlcNAc(b1-3)Gal(b1-4)[Fuc(a1-3)]GlcNAc(b1-6)[Gal(b1-3)GlcNAc(b1-3)]Gal(b1-4)Glc
# Summary of the method: as §1
# [6] = molecular target: Gal(b1-3)GlcNAc(b1-3)GalNAc
# Summary of the method: as §1
# [7] = molecular target: Gal(b1-3)GlcNAc(b1-6)Gal(b1-4)GlcNAc
# Summary of the method: as §1
# [8] = molecular target: Gal(b1-3)GlcNAc(b1-6)GalNAc
# Summary of the method: as §1
# [9] = molecular target: Gal(b1-3)GlcNAc(b1-6)[Gal(b1-3)]GalNAc
# Summary of the method: as §1
# [10] = molecular target: Gal(b1-3)GlcNAc6S
# Summary of the method: as §1
# [11] = molecular target: Gal(b1-3)[Fuc(a1-4)]GlcNAc
# Summary of the method: as §1
# [12] = molecular target: Gal(b1-3)[Fuc(a1-4)]GlcNAc(b1-2)Man
# Summary of the method: as §1
# [13] = molecular target: Gal(b1-3)[Fuc(a1-4)]GlcNAc(b1-2)Man(a1-3)[Gal(b1-3)[Fuc(a1-4)]GlcNAc(b1-2)Man(a1-6)]Man(b1-4)GlcNAc(b1-4)[Fuc(a1-6)]GlcNAc
# Summary of the method: as §1
# [14] = molecular target: Gal(b1-3)[Fuc(a1-4)]GlcNAc(b1-3)Gal(b1-3)[Fuc(a1-4)]GlcNAc
# Summary of the method: as §1
# [15] = molecular target: Gal(b1-3)[Fuc(a1-4)]GlcNAc(b1-3)Gal(b1-4)[Fuc(a1-3)]GlcNAc
# Summary of the method: as §1
# [16] = molecular target: Gal(b1-3)[Fuc(a1-4)]GlcNAc(b1-6)GalNAc
# Summary of the method: as §1
# [17] = molecular target: Gal(b1-3)[GlcNAc(b1-6)]GalNAc
# Summary of the method: as §1
# [18] = molecular target: Gal(b1-3)[Neu5Ac(a2-6)]GalNAc
# Summary of the method: as §1
# [19] = molecular target: Gal(b1-3)[Neu5Ac(a2-6)]GlcNAc(b1-4)Gal(b1-4)Glc
# Summary of the method: as §1
# [20] = molecular target: Gal(b1-3)[Neu5Ac(b2-6)]GalNAc
# Summary of the method: as §1
# [21] = molecular target: Gal(b1-4)Gal
# Summary of the method: as §1
# [22] = molecular target: Gal(b1-4)GalNAc(a1-3)[Fuc(a1-2)]Gal(b1-4)GlcNAc
# Summary of the method: as §1
# [23] = molecular target: Gal(b1-4)GalNAc(b1-3)[Fuc(a1-2)]Gal(b1-4)GlcNAc
# Summary of the method: as §1
# [24] = molecular target: Gal(b1-4)Glc
# Summary of the method: as §1
# [25] = molecular target: Gal(b1-4)Glc6S
# Summary of the method: as §1
# [26] = molecular target: Gal(b1-4)GlcNAc
# Summary of the method: as §1
# [27] = molecular target: Gal(b1-4)GlcNAc(a1-6)Gal(b1-4)GlcNAc
# Summary of the method: as §1
# [28] = molecular target: Gal(b1-4)GlcNAc(b1-2)Man
# Summary of the method: as §1
# [29] = molecular target: Gal(b1-4)GlcNAc(b1-2)Man(a1-3)Man(b1-4)GlcNAc(b1-4)GlcNAc
# Summary of the method: as §1
# [30] = molecular target: Gal(b1-4)GlcNAc(b1-2)Man(a1-3)[Gal(b1-4)GlcNAc(b1-2)Man(a1-6)]Man(b1-4)GlcNAc(b1-4)GlcNAc
# Summary of the method: as §1
# [31] = molecular target: Gal(b1-4)GlcNAc(b1-2)Man(a1-3)[Gal(b1-4)GlcNAc(b1-2)Man(a1-6)]Man(b1-4)GlcNAc(b1-4)[Fuc(a1-6)]GlcNAc
# Summary of the method: as §1
# [32] = molecular target: Gal(b1-4)GlcNAc(b1-2)Man(a1-3)[Gal(b1-4)GlcNAc(b1-2)Man(a1-6)][Gal(b1-4)GlcNAc(b1-4)]Man(b1-4)GlcNAc(b1-4)[Fuc(a1-6)]GlcNAc
# Summary of the method: as §1
# [33] = molecular target: Gal(b1-4)GlcNAc(b1-2)Man(a1-3)[Gal(b1-4)GlcNAc(b1-2)Man(a1-6)][GlcNAc(b1-4)]Man(b1-4)GlcNAc(b1-4)[Fuc(a1-6)]GlcNAc
# Summary of the method: as §1
# [34] = molecular target: Gal(b1-4)GlcNAc(b1-2)Man(a1-3)[GlcNAc(b1-2)Man(a1-6)]Man(b1-4)GlcNAc(b1-4)GlcNAc
# Summary of the method: as §1
# [35] = molecular target: Gal(b1-4)GlcNAc(b1-2)Man(a1-3)[GlcNAc(b1-4)][Gal(b1-4)GlcNAc(b1-2)Man(a1-6)]Man(b1-4)GlcNAc(b1-4)GlcNAc
# Summary of the method: as §1
# [36] = molecular target: Gal(b1-4)GlcNAc(b1-2)Man(a1-3)[Man(a1-6)]Man(b1-4)GlcNAc(b1-4)GlcNAc
# Summary of the method: as §1
# [37] = molecular target: Gal(b1-4)GlcNAc(b1-2)Man(a1-6)Man(b1-4)GlcNAc(b1-4)GlcNAc
# Summary of the method: as §1
# [38] = molecular target: Gal(b1-4)GlcNAc(b1-2)Man(a1-6)[GlcNAc(b1-2)Man(a1-3)]Man(b1-4)GlcNAc(b1-4)GlcNAc
# Summary of the method: as §1
binder,measurement,setting,value
GS7807Q-bfa-507-19-507 (Bacteroides fragilis) (protein) ASCNKFDDLNTNPDAATKVTAPMLATKLILNITQQGSAKNFVYHSMLSKQIAWSENASDEQYNLFGRTDFDGYTILTNCQKMVDAANEGDKDSYAALAKFMKAYKLFYKSLEVGDIPYSDALKGEEGVQKPKYDTQKEVMRQVLEDLEEAYTLFSSGSDFDGDPIFGGDTENWKKTVVAFELKVLTHLCKKDTDADLKVKERFARLVSSGSLMTSNADNFQLVYSNKAGQLYPFYYTQNKHSDYLMMSSVIIDNLKKFNDYRMFYYASPAKAQTDKGIKDSEWDAYLSIDPSDSYSNISVLYGKGEFCLANLRYTRVPEGEPLMRLSYAEQNFILAEGAVRGWISEDASTYYKKGIEASMNFIADNTPDKEEYTHGRTITQEYIQEYLAQPVIQLSGDKEKDLEMILLQRYLASFLQHPYDAYYDYRRTGYPVLPINPSTNLNTEKNKIPTRWMYPEAEFSYNPDNANEAVQRQYNGSDDVNKLMWILQ,glycan array binding signal (z-score),[1],0.609
same,glycan array binding signal (z-score),[2],3.08
same,glycan array binding signal (z-score),[3],3.63
same,glycan array binding signal (z-score),[4],0.816
same,glycan array binding signal (z-score),[5],-0.763
same,glycan array binding signal (z-score),[6],-0.513
same,glycan array binding signal (z-score),[7],0.525
same,glycan array binding signal (z-score),[8],1.59
same,glycan array binding signal (z-score),[9],-0.561
same,glycan array binding signal (z-score),[10],-0.107
same,glycan array binding signal (z-score),[11],-0.643
same,glycan array binding signal (z-score),[12],-0.028
same,glycan array binding signal (z-score),[13],3.07
same,glycan array binding signal (z-score),[14],0.018
same,glycan array binding signal (z-score),[15],-0.731
same,glycan array binding signal (z-score),[16],1.6
same,glycan array binding signal (z-score),[17],-0.796
same,glycan array binding signal (z-score),[18],-0.027
same,glycan array binding signal (z-score),[19],-0.953
same,glycan array binding signal (z-score),[20],-0.114
same,glycan array binding signal (z-score),[21],-0.546
same,glycan array binding signal (z-score),[22],-0.984
same,glycan array binding signal (z-score),[23],0.8
same,glycan array binding signal (z-score),[24],-0.523
same,glycan array binding signal (z-score),[25],-0.246
same,glycan array binding signal (z-score),[26],0.007
same,glycan array binding signal (z-score),[27],-0.867
same,glycan array binding signal (z-score),[28],0.859
same,glycan array binding signal (z-score),[29],0.216
same,glycan array binding signal (z-score),[30],0.26
same,glycan array binding signal (z-score),[31],-0.245
same,glycan array binding signal (z-score),[32],0.294
same,glycan array binding signal (z-score),[33],-0.502
same,glycan array binding signal (z-score),[34],-0.596
same,glycan array binding signal (z-score),[35],-0.058
same,glycan array binding signal (z-score),[36],0.768
same,glycan array binding signal (z-score),[37],0.767
same,glycan array binding signal (z-score),[38],-0.286

# 2 successive records already listed, for reference:
binder,measurement,setting,value
GS7807Q-bfa-507-19-507 (Bacteroides fragilis) (protein) ASCNKFDDLNTNPDAATKVTAPMLATKLILNITQQGSAKNFVYHSMLSKQIAWSENASDEQYNLFGRTDFDGYTILTNCQKMVDAANEGDKDSYAALAKFMKAYKLFYKSLEVGDIPYSDALKGEEGVQKPKYDTQKEVMRQVLEDLEEAYTLFSSGSDFDGDPIFGGDTENWKKTVVAFELKVLTHLCKKDTDADLKVKERFARLVSSGSLMTSNADNFQLVYSNKAGQLYPFYYTQNKHSDYLMMSSVIIDNLKKFNDYRMFYYASPAKAQTDKGIKDSEWDAYLSIDPSDSYSNISVLYGKGEFCLANLRYTRVPEGEPLMRLSYAEQNFILAEGAVRGWISEDASTYYKKGIEASMNFIADNTPDKEEYTHGRTITQEYIQEYLAQPVIQLSGDKEKDLEMILLQRYLASFLQHPYDAYYDYRRTGYPVLPINPSTNLNTEKNKIPTRWMYPEAEFSYNPDNANEAVQRQYNGSDDVNKLMWILQ,glycan array binding signal (z-score),[34],-0.596
same,glycan array binding signal (z-score),[35],-0.058
